This is an account of results in the supplement of paper PMC5407854, “Inhibitor of ppGalNAc-T3-mediated O-glycosylation blocks cancer cell invasiveness and lowers FGF23 levels” (eLife, 2017).

In all, about 1,700 compounds were measured (“T2 sensor activation Q score (MG/GFP ratio z-score vs DMSO controls)”: median about 0.3, highest 2% from about 1.9 on). Some of the results follow.

The subject of this assay is ppGalNAc-T2 sensor. The experiment in a line: T2 sensor activation Q score (MG/GFP ratio z-score vs DMSO controls) (SD units); higher = more sensor activation (inhibition of ppGalNAc-T2 glycosylation). Particulars: HEK293 sensor cells; 10 µM; 6 h. As for the experimental part:
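Cells were treated with compound at 10 uM for 6 h, then MG/GFP ratio was read by flow cytometry (10,000 cells per well, duplicate wells). Q = (R - R_neg)/SD_neg relative to DMSO vehicle controls; the signal rises when the glycosyltransferase is inhibited.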
As to `Cc1nc([N+](=O)[O-])cn1-c1nc2ccccn2c1[N+](=O)[O-]`, the “T2 sensor activation Q score” value is 1. The result for `CCCc1nc2c([nH]1)c(=O)n(C)c(=O)n2C` reads 1.8; that for `CC(C)NCC1CCc2cc(CO)c([N+](=O)[O-])cc2N1` (stereo not drawn), -0.55; that for `CCOC(=O)Nc1cc2c(c(N)n1)N=C(c1ccccc1)CN2`, 1.55. The result for `COC1OCC(O)C(NC(=O)N(C)N=O)C1O` (stereo not drawn) reads 1.2; that for `CC(C)N(Cc1ccccc1)S(=O)(=O)c1n[nH]c(C(C)(C)C)n1`, -1.75; that for `CCCCNC(=O)Nc1ccccc1CC`, 1.7. Turning to `CC1(C)SC(C)(C)N(C=O)C1C(=O)O` (stereo not drawn), the “T2 sensor activation Q score” value is 0.45. As to `CCCCCOC(=O)Nc1nc(=O)n([C@@H]2O[C@H](C)[C@@H](O)[C@H]2O)cc1F`, the “T2 sensor activation Q score” value is -1.35.

For `Cc1cc2c(cc1[N+](=O)[O-])NC(CNC(C)C)CC2` (stereo not drawn), the “T2 sensor activation Q score” value is -0.5. As for `NS(=O)(=O)c1ccc(N=Nc2c(O)c(C(=O)O)cc3ccccc23)cc1`, the “T2 sensor activation Q score” value came out at 0.1. The result for `Nc1cc(Nc2ccc(Br)cc2)nc(N)n1` reads 0.6; that for `COc1nc(N)nc2c1ncn2[C@@H]1O[C@H](CO)[C@@H](O)[C@@H]1O`, 0.1; that for `CCCCn1c(OC(=S)N(CC)CC)cc(C)nc1=S`, 0.1.

Turning to `Oc1ccccc1-c1nc2c3ccccc3c3ccccc3c2[nH]1`, the “T2 sensor activation Q score” value is -1.5. As to `CCCCSc1nc(C(=O)O)cc(=O)[nH]1`, the “T2 sensor activation Q score” value was found to be 1.55. The figure for `CN(CCC#N)c1ccc(/C=C(\C#N)c2cccc(C(F)(F)F)c2)cc1` is 1.85; for `O=C(O)c1cc(O)ccc1N=Nc1ccccc1` it is 1.55; for `CC(C)C(=O)c1ccc(O)c(O)c1` it is 0.9.

With `Cc1c(CCO)c(=O)n2n1CCCC2`, the “T2 sensor activation Q score” value was -0.2.

As to `CCn1c(=O)n(C)c2c(=O)n(C)c(=O)n(C)c21`, the “T2 sensor activation Q score” value was -1.1.

On to `Cc1nc2sc3c(c2c(=O)[nH]1)CCCC3`, for which the “T2 sensor activation Q score” value is 0. Turning to `CCn1c2ccccc2c2c3ncc4cccn4c3ccc21`, the “T2 sensor activation Q score” value stood at 0. In the case of `CCOC(=O)c1cnn2c(SC)ncnc12`, the “T2 sensor activation Q score” value is -0.3. For the compound `C/C(=N\NC(=S)N1CC2CCC(CC2)C1)c1cnccn1`, the “T2 sensor activation Q score” value was -1.25. For `CCn1c2ccccc2nc2cc3c(cc21)c(Cl)c(=O)c1ccccc13`, the “T2 sensor activation Q score” value came out at 0.25.

Turning to `O=C1CCC(N2C(=O)c3ccccc3C2=O)C(=O)N1` (stereo not drawn), the “T2 sensor activation Q score” value came out at 0.2.

For the compound `CCC(C)NC(=S)Nc1ccccc1` (stereo not drawn), the “T2 sensor activation Q score” value is -0.05. The result for `COc1cc2c(cc1OC)C(=O)Cc1ccc3c(c1CN(C)CC2)OCO3` reads 1.1; that for `Nc1nc(N)nc(-c2ccccc2-c2nc(N)nc(N)n2)n1`, 0.1; that for `O=C(Nc1ccc(C2=NCCCN2)cc1)Nc1ccc(C2=NCCCN2)cc1`, -0.6. With `CCOc1ccc(NC(=O)N(O)C2(C#N)CCCCC2)cc1`, the “T2 sensor activation Q score” value is 0.95. The result for `Cc1cc(N2CCOCC2)nc(N2CCOCC2)n1` reads 0.15; that for `CC(C)(c1cc(Cl)c(O)c(CN2CCOCC2)c1)c1cc(Cl)c(O)c(CN2CCOCC2)c1`, 1.2. The figure for `O=c1[nH]cnc2[nH]ncc12` is -0.85; for `CC(C)c1nc2c([nH]1)c(=O)n(C)c(=O)n2C` it is -3.2.

In the case of `C1COCCN1.O=C(O)C(C=C(Cl)Cl)N1CCOCC1` (stereo not drawn), the “T2 sensor activation Q score” value was 2.65. For the compound `O=C(O)CCCC[C@@H]1SC[C@@H]2NC(=O)N[C@@H]21`, the “T2 sensor activation Q score” value came out at 0.9. Take `CCOC(=O)C(=O)Cc1cccnn1`: the “T2 sensor activation Q score” value is -1.15. Consider `O=C1C(Br)=Cc2cccc3cccc1c23`, for which the “T2 sensor activation Q score” value came out at 0.9. For `CCSc1ncc(CO)c(N)n1`, the “T2 sensor activation Q score” value stood at 1.65. On to `OC1COC(OCc2ccccc2)C(O)C1O` (stereo not drawn), for which the “T2 sensor activation Q score” value turned out to be 0.35. The figure for `Nc1cc(N)nc(CS)n1` is 1.45.

Take `N#Cc1nnn(-c2ccc(Cl)cc2)c1N`: the “T2 sensor activation Q score” value worked out at 1. For `CN(C)C/C=C/C(=O)Nc1cc2c(Nc3ccc(F)c(Cl)c3)ncnc2cc1O[C@H]1CCOC1`, the “T2 sensor activation Q score” value was -2.15. The figure for `S=C(Nc1ccccc1)c1ccccn1` is 1.05. The result for `Nc1ccc2c(c1)nnn2-c1ccccc1` reads 0.85; that for `NC(=Nc1ccc(N)cc1)C(N)=Nc1ccc(N)cc1`, -1.4. The result for `C=C1CC2(OC1=O)c1ccccc1CCc1ccccc12` reads -1.9; that for `Cc1ccc(S(=O)(=O)N(C)C)cc1[N+](=O)[O-]`, 1.6; that for `C#CCC(Cc1cnc2nc(N)nc(N)c2n1)c1ccc(C(=O)N[C@@H](CCC(=O)O)C(=O)O)cc1` (stereo partly drawn), 0. In the case of `Clc1ccc2nc3ccccc3cc2c1`, the “T2 sensor activation Q score” value was determined as 1.3. The result for `CSc1ccc(NC(=O)Nc2ccccc2C(N)=O)cc1` reads 0.75. On to `O=[N+]([O-])c1cc(Cl)cc2c1nc(NCCO)c1ccccc12`, for which the “T2 sensor activation Q score” value is -0.15. Take `c1ccc2[nH]c(CCCCCc3nc4ccccc4[nH]3)nc2c1`: the “T2 sensor activation Q score” value turned out to be 1.7. `C(=N\Nc1nnn(Cc2ccccc2)n1)/c1ccccc1`: the “T2 sensor activation Q score” value turned out to be 0.5. For the compound `CCCCOc1ccc(N=Nc2ccc(N)nc2N)cn1`, the “T2 sensor activation Q score” value worked out at 1.8. As to `O=C1c2cc([N+](=O)[O-])ccc2-c2cc(Br)c(N=C(NO)C(F)(F)F)cc21`, the “T2 sensor activation Q score” value was -1.2. The figure for `NC(=O)SCC(=O)Nc1ccccc1C(=O)O` is 0.8; for `CN(C)C(=S)/N=c1\ssc(=S)n1Cc1ccco1` it is 0.75; for `CCN(CC)C(=O)Cn1ccc(NC(C)=O)nc1=O` it is 0.5. The figure for `CC1=CC(C)(C)Nc2ccc(Cc3ccc4c(c3)C(C)=CC(C)(C)N4)cc21` is 0.65; for `Cn1c([N+](=O)[O-])cnc1N1CCN(c2nncs2)C1=O` it is -1.65.
